No constants are given. Whether binding was seen depends on the method and setting. Some binding calls cover weakened binding; strength is not graded here.
Tests used:
[1] = biological target: KIR3DL2, on cells (TALL-104 T cell line; NK clones) (human) (UniProt P43630); assay: tetramer staining of TALL-104 cells (MHC-I OC negative), flow cytometry
[2] = biological target: KIR3DL2, on cells (TALL-104 T cell line; NK clones) (human) (UniProt P43630); assay: tetramer staining of resting NK clones, flow cytometry

The chains behind the UniProt entries cited, without tags or fusion partners. Residues count along the entry.
UniProt P43630, residues 22-455: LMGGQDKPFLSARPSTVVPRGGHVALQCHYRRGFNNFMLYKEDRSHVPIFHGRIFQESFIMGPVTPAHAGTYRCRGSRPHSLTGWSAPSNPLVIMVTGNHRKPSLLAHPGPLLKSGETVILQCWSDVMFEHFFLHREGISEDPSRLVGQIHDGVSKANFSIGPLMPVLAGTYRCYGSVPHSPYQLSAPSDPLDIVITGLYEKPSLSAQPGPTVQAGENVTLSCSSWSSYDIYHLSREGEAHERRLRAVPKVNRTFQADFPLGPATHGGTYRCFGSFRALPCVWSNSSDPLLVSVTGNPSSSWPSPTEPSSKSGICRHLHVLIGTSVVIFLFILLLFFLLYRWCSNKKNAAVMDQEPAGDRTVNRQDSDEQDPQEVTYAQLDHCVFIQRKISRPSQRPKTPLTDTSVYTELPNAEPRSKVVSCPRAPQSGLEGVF

binding [1]: binds
binding [2]: binds
B1: HLA-F tetramer (other, human, UniProt P30511 22-296, looked up)
MHC heavy: GSHSLRYFSTAVSRPGRGEPRYIAVEYVDDTQFLRFDSDAAIPRMEPREPWVEQEGPQYWEWTTGYAKANAQTDRVALRNLLRRYNQSEAGSHTLQGMNGCDMGPDGRLLRGYHQHAYDGKDYISLNEDLRSWTAADTVAQITQRFYEAEEYAEEFRTYLEGECLELLRRYLENGKETLQRADPPKAHVAHHPISDHEATLRCWALGFYPAEITLTWQRDGEEQTQDTELVETRPAGDGTFQKWAAVVVPPGEEQRYTCHVQHEGLPQPLILRWE
modifications: BirA biotinylated, bound to streptavidin-PE
notes: 1 µg BirA biotinylated monomer incubated with 1.5 µg streptavidin-PE

From patent US20160045594A1, “DIRECTED IMMUNE STIMULATION” (Fred Hutchinson Cancer Research Center, priority 2013, published 2016)
